Reference: patent US20080090863A1, “Pyridine Derivatives and Their Use as Medicaments for Treating Diseases Related to Mch Receptor” (TAISHO PHARMACEUTICAL CO., LTD., priority 2004, published 2008)
Structures can show the parent of a compound that is named as a salt.

Target: MCH receptor (Homo sapiens, UniProt Q99705)
Experiment: High Throughput Functional Screening: FLIPR/FDSS6000 intracellular Ca2+ assay, antagonist activity against MCH
Type: cell-based
Conditions: FLIPR/FDSS, [Ca2+]i evoked by 50 nM MCH; class by percent of control at 10^−7 M or IC50
From the text: Subsequently, a functional based assay was used to confirm the lead hits, referred to as FLIPR™ (the Fluorometric Imaging Plate Reader) and FDSS6000™ (Functional Drug Screening System). This assay utilized a non-endogenous, constitutively active version of the MCH receptor.
The FLIPR and FDSS assays are able to detect intracellular Ca^2+ concentration in cells, which can be utilized to assess receptor activation and determine whether a candidate compound is an, for example, antagonist, inverse agonist or agonist to a Gq-coupled receptor. […]
Fluorometric Imaging Plate Reader system was used to allow for rapid, kinetic measurements of intracellular fluorescence in 96 well microplates (or 384 well microplates). Simultaneous measurements of fluorescence in all wells can be made by FLIPR or FDSS6000™ every second with high sensitivity and precision. […]
Briefly, the cells are seeded into 96 well at 5.5×10^4 cells/well with complete culture media (Dulbecco's Modified Eagle Medium with 10% fetal bovine serum, 2 mM L-glutamine, 1 mM sodium pyruvate and 0.5 mg/mL G418, pH 7.4) for the assay next day. […] Fifty μl of wash buffer containing various concentration of MCH are added to each well, and transient changes in [Ca^2+]i evoked by MCH are monitored using the FLIPR™ or FDSS in 96 well plates at Ex. 488 nm and Em. […]

- IC50: < 50 nM
Compound: CN(C)c1cccc(N[C@H]2CC[C@@H](NC(=O)c3ccc(F)c(Cl)c3)CC2)n1 [Example 38, 3-Chloro-N-(cis-4-{[6-(dimethylamino)pyridin-2-yl]amino}cyclohexyl)-4-fluorobenzamide hydrochloride]
